Experimental data from PubChem BioAssay AID2685 (National Center for Advancing Translational Sciences (NCATS), 2010).
The other results are listed elsewhere or left out. The main result of the screen is listed elsewhere. These columns were measured beside it and carry no call. The list favours compounds with an active or inconclusive main result. Potencies come from curve fits of mixed quality, noted in brackets.

Assay: qHTS Assay for Lipid Storage Modulators in Drosophila S3 Cells;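 for cell number change: cells counted by Cell Tracker Red CMTPX staining in the red channel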
Conditions: BODIPY lipid droplet fluorescence, 18-24 h; for cell number change: measured here: cell count max response, cells fed with added oleic acid
Method in brief: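 Drosophila S3 cells loaded with oleic acid (400 uM, as added) and compounds at several concentrations; lipid droplets imaged by 488-nm laser-scanning cytometry, 500–530 nm intensity and object ratio to cell channel. Percent activity normalized to 20 uM Triacsin C.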

[1] = measured here: cell number channel AC50, cells fed with added oleic acid
[2] = measured here: lipid fluorescence (Fed channel) AC50, cells fed with added oleic acid

Row | Structure (SMILES) | cell number change [%] | AC50 [1] | AC50 [2]
1 | Cc1ccc(NC(=S)c2nc3ccccc3s2)cc1 | -69.3 | 25.9 µM [falling, single point] | 29.1 µM [falling, single point]
2 | COc1ccc(NC(=O)c2cn(CCC#N)nc2-c2cc3ccccc3o2)cc1 | -14 |  | 29.1 µM [falling, single point]
3 | Cc1ccccc1NC(=O)CCN1CCN(C)CC1 | 15.1 |  | 
4 | Cc1ccc(C)c(NC(=O)COC(=O)c2nc(Cl)ccc2Cl)c1 | 50.7 | 0.00517 µM [rising, full curve, poor fit] | 0.0651 µM [rising, full curve, poor fit]
5 | O=C(c1nc2ccc(Cl)cn2c1CN1CCCC1)N1CCc2ccccc2C1 | -22 |  | 
6 | Cc1ccccc1NC(=O)C(=O)c1cn(C)c2ccccc12 | 23.1 |  | 4.61 µM [rising, partial curve, poor fit]
7 | O=C(COc1ccc(S(=O)(=O)N2CCCCC2)cc1)N1CCCCCC1 | 15 |  | 0.651 µM [falling, single point]
8 | O=C(CCl)Nc1ccccc1Sc1ccccc1 | -0.266 |  | 4.61 µM [rising, full curve, poor fit]
9 | CCCC1=C/C(=C/c2ccc(-c3ccccc3OC)o2)C(=O)O1 | 11.6 |  | 0.92 µM [rising, full curve]
10 | Cc1ccc(Nc2nc(C)cc(C)n2)c(Br)c1 | 10.2 | 5.8 µM [rising, single point] | 5.17 µM [rising, full curve]
11 | Cc1cc2cc(CNC(=S)Nc3ccc(OC(F)F)cc3)ccc2[nH]1 | 4.49 |  | 0.92 µM [rising, full curve, poor fit]
12 | CO[C@H]1O[C@H](C)[C@@H](O)C[C@H]1NC(=O)OCc1ccccc1 | 3.57 |  | 
13 | Cc1ccc(NC(=O)C2C(=O)N(C)c3ccccc32)cc1 (configuration not stated) | -3.7 |  | 2.06 µM [falling, partial curve]
14 | Cc1nc(Nc2ccc(Cl)cc2)c(C#N)c(=O)[nH]1 | 23.5 |  | 29.1 µM [rising, single point]
15 | CN[C@@H]1CC[C@H](c2ccc(Cl)c(Cl)c2)c2ccccc21 | -36.9 | 32.6 µM [falling, single point] | 
16 | COCCNC(=O)CN1CCOc2ccccc21 | 16.2 |  | 6.51 µM [rising, partial curve, poor fit]
17 | CN1/C(=C\C(=O)C[n+]2ccc(C(=O)c3ccccc3)cc2)C(C)(C)c2ccccc21 | -27.7 |  | 18.4 µM [falling, single point]
18 | Brc1cccc(OCCn2ccnc2)c1 | 127 | 9.2 µM [rising, partial curve] | 4.11 µM [rising, partial curve]

2 of the compounds above, tab-delimited:
Row	Structure (SMILES)	cell number change [%]	AC50 [1]	AC50 [2]
4	Cc1ccc(C)c(NC(=O)COC(=O)c2nc(Cl)ccc2Cl)c1	50.7	0.00517 µM [rising, full curve, poor fit]	0.0651 µM [rising, full curve, poor fit]
11	Cc1cc2cc(CNC(=S)Nc3ccc(OC(F)F)cc3)ccc2[nH]1	4.49		0.92 µM [rising, full curve, poor fit]
